In PubChem BioAssay AID493014 (National Center for Advancing Translational Sciences (NCATS), 2011):
Some of the results follow. The main result of the screen is listed elsewhere. These columns were measured beside it and carry no call. Compounds called inactive in the main read-out are mostly missing here. The note in brackets gives the kind of curve behind each potency; many fits are weak.

Assay: qHTS Assay to Find Inhibitors of Chronic Active B-Cell Receptor Signaling
Conditions: ABC-DLBCL IkBa-CBG/CBR reporter, luminescence ratio (green luciferase fused to IkBa over red control in TMD8 lymphoma cells), 4 h
Procedure, shortened: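 TMD8 ABC-DLBCL cells carrying doxycycline-inducible green luciferase fused to IkappaBalpha plus unfused red luciferase were exposed to compounds (up to 46 uM) for 4 hrs at 37C. Activity came from the overlap-corrected green/red luminescence ratio.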

[1] = measured here: CBR red luminescence, cell number
[2] = measured here: IkBa-CBG green luminescence

| Compound | AC50 [1] | AC50 [2] |
| --- | --- | --- |
| CC(N=C1CC(C)(C)CC(=O)/C1=C(/O)CCCN1C(=O)c2ccccc2C1=O)C(=O)O (stereo not drawn) | 11.2 µM [falling, single point] |  |
| O=C(O)c1ccc(N/N=C/C=C/c2ccc([N+](=O)[O-])o2)cc1 | 0.282 µM [falling, full curve, poor fit] |  |
| C/C(=N/NC(=O)OC(C)(C)C)c1ccco1 | 0.82 µM [falling, full curve] |  |
| O=[N+]([O-])c1ccc(N2CCN(c3ccccc3)CC2)cc1 | 2.24 µM [rising, full curve] |  |
| O=C(c1ccco1)N1CCN(c2nc3ccsc3c(=O)s2)CC1 | 6.51 µM [rising, partial curve, poor fit] |  |
| CC(C)(C)c1ccccc1NC(=O)Cn1c(=O)cnc2ccccc21 |  | 4.11 µM [falling, partial curve, poor fit] |
| CC(=O)c1cccc(Nc2cc(C)nc3c(C)cccc23)c1 | 35.5 µM [falling, single point] |  |
| CN(C)c1ccc(C(=O)/C=C/c2cccnc2)cc1 | 14.1 µM [falling, partial curve, poor fit] |  |
| Cc1ccc(C(=O)CSc2nnc(-c3cccnc3)n2N)cc1 | 23.1 µM [falling, single point] |  |
| O=C(Nc1ccc2c(c1)OCO2)c1cc(-c2ccccc2Cl)on1 | 0.282 µM [falling, full curve, poor fit] |  |
| COc1ccc2c(c1)CCCC21NC(=O)N(CC(=O)c2cc(F)ccc2F)C1=O (stereo not drawn) | 0.651 µM [rising, partial curve, poor fit] |  |
| Cc1noc(/C=C/c2ccco2)c1S(=O)(=O)N1CCC(C(=O)N2CCc3ccccc32)CC1 | 1.16 µM [rising, full curve, poor fit] |  |
| COc1ccc(CNC(=O)C(C)OC(=O)C23CC4CC(CC(O)(C4)C2)C3)cc1 (stereo not drawn) | 16.4 µM [rising, partial curve] |  |
| COc1ccccc1N(CC(=O)NC1CCCCC1)S(=O)(=O)c1cccs1 | 31.6 µM [falling, single point] |  |
| COc1ccccc1NC(=O)Cn1nnc(C(=O)NCc2ccc3c(c2)OCO3)c1N | 2.51 µM [falling, partial curve, poor fit] |  |
| O=C(NC(=S)Nc1ccccc1Br)c1ccco1 | 2.82 µM [rising, partial curve, poor fit] |  |

| Compound | AC50 [1] | AC50 [2] |
| --- | --- | --- |
| COC(=O)COc1cccc(NC(=O)c2ccccc2)c1 | 35.5 µM [falling, single point] |  |
| CC(=O)c1sccc1NC(=O)CC(C)(C)CC(=O)O | 0.112 µM [rising, full curve, poor fit] |  |
| Cc1ccc(Nc2nc(-c3cccs3)cs2)nc1 | 3.55 µM [falling, partial curve] |  |
| COc1ccc(/C=N/Nc2cc(C)nc3ccccc23)cc1 | 20 µM [falling, single point] |  |
| COc1ccc(NC(=O)Cc2ccc(C)c(C)c2)cc1Cl | 17.8 µM [rising, partial curve, poor fit] |  |
| CCCn1c(SCC(=O)c2cc(C)n(-c3ccc4c(c3)OCO4)c2C)n[nH]c1=O | 32.6 µM [falling, partial curve, poor fit] |  |
| CCn1cc(C(=O)Nc2cccc(C)c2)c(=O)c2ccc(C)nc21 | 28.2 µM [rising, single point] |  |
| CC1(C)CC(=O)C2=C(C1)NC(=O)CC2c1cccc(F)c1 (stereo not drawn) | 35.5 µM [falling, partial curve, poor fit] |  |
| COc1ccccc1N=Nc1c(C)n[nH]c1C | 20 µM [rising, partial curve] | 35.5 µM [falling, single point] |
| CN(CC1CCCO1)S(=O)(=O)c1ccc(C(=O)Nc2ccc([N+](=O)[O-])cc2)cc1 (stereo not drawn) | 0.112 µM [rising, full curve, poor fit] |  |
| CCOC(=O)C(C(=O)Nc1cccc(C)n1)C1CCCCC1 (stereo not drawn) | 0.355 µM [rising, full curve, poor fit] |  |
| COc1ccccc1NS(=O)(=O)c1ccc(NN=C2CCCCC2)c([N+](=O)[O-])c1 | 25.9 µM [falling, partial curve] |  |
| Cc1nc(-c2c(C(=O)NNC(=O)Nc3c(C)cccc3C)noc2C)cs1 | 1.41 µM [rising, full curve] |  |
| CCCCOC(=O)c1ccc(NC(=O)C(=O)NCc2ccccn2)cc1 | 7.08 µM [rising, partial curve] |  |
| FC(F)(F)Oc1ccccc1-c1nnc(-c2cccc(C(F)(F)F)c2)o1 | 5.01 µM [rising, partial curve, poor fit] |  |
| N#CCCN(C(=O)COC(=O)Cc1c[nH]c2ccccc12)c1ccccc1 | 3.26 µM [rising, partial curve, poor fit] |  |

Compounds listed so far with an aryl thioether with sulfur outside any ring, in the order listed:

| Compound | AC50 [1] | AC50 [2] |
| --- | --- | --- |
| Cc1ccc(C(=O)CSc2nnc(-c3cccnc3)n2N)cc1 | 23.1 µM [falling, single point] |  |
| CCCn1c(SCC(=O)c2cc(C)n(-c3ccc4c(c3)OCO4)c2C)n[nH]c1=O | 32.6 µM [falling, partial curve, poor fit] |  |
